For part of these data: At least one read-out could not be matched to a standard name with certainty. Some results were stated once for a whole list of compounds, not compound by compound.
Assays:
[1] = tested on: EpiAirway™ human-derived tracheal/bronchial epithelial cells; assay: Transepithelial electrical resistance (TER) across EpiAirway epithelial cell layer; type: cell-based
[2] = Chemical stability of PN159 (stability indicating HPLC); type: physicochemical; conditions: 5° C., pH 4.0 or pH 7.3, six month storage
Method: The chemical stability of the PN159 was determined under therapeutically relevant storage conditions. A stability indicating HPLC method was employed. Solutions (50 mM) were stored at various pH (4.0, 7.3, and 9.0) and temperature (5° C., 25° C., 35° C., 40° C., and 50° C.) conditions. Samples at pH 4 contained 10 mM citrate buffer. Samples at pH 7.3 and 9.0 contained 10 mM phosphate buffer. Representative storage stability data (including the Arrhenius plot) are depicted in FIG. 6. […] For example, at 5° C. and pH 4.0 or pH7.3, there was essentially 100% recovery of PN159 for six month storage. […] The pH range of 4.0 to 7.3 and the temperature range of refrigerated to ambient are most relevant for intranasal formulations.
The chemical stability of the PN159 was determined under therapeutically relevant storage conditions. A stability indicating HPLC method was employed. Solutions (50 mM) were stored at various pH (4.0, 7.3, and 9.0) and temperature (5° C., 25° C., 35° C., 40° C., and 50° C.) conditions. Samples at pH 4 contained 10 mM citrate buffer. Samples at pH 7.3 and 9.0 contained 10 mM phosphate buffer. […] For example, at 5° C. and pH 4.0 or pH 7.3, there was essentially 100% recovery of PN159 for six month storage. […]
The chemical stability of the PN159 was determined under therapeutically relevant storage conditions. […]

With `CC(C)C[C@H](NC(=O)[C@H](C)NC(=O)[C@H](CCCCN)NC(=O)[C@H](CC(C)C)NC(=O)[C@H](C)NC(=O)[C@H](CC(C)C)NC(=O)[C@H](CCCCN)NC(=O)[C@H](CC(C)C)NC(=O)[C@H](C)NC(=O)[C@H](CC(C)C)NC(=O)[C@@H](N)CCCCN)C(=O)N[C@@H](CCCCN)C(=O)N[C@@H](C)C(=O)N[C@@H](C)C(=O)N[C@@H](CC(C)C)C(=O)N[C@@H](CCCCN)C(=O)N[C@@H](CC(C)C)C(=O)N[C@@H](C)C(N)=O` [PN159] the “TER reduction (highest within the concentration range tested)” value [1] was greater than 90% and the “recovery of PN159” value [2] was roughly 100%.
With “H-AAVALLPAVLLALLAPRKKRRQRRRPPQ-NH2 [PN27]” the “TER reduction (highest within the concentration range tested)” value [1] was greater than 90%.
